The results in this text go back to the supplement of paper PMC10849652.

The chains behind the UniProt entries cited, without tags or fusion partners. Where a name states a change or a piece, a line headed by the entry shows the natural chain unless it says otherwise.
UniProt Q8N766: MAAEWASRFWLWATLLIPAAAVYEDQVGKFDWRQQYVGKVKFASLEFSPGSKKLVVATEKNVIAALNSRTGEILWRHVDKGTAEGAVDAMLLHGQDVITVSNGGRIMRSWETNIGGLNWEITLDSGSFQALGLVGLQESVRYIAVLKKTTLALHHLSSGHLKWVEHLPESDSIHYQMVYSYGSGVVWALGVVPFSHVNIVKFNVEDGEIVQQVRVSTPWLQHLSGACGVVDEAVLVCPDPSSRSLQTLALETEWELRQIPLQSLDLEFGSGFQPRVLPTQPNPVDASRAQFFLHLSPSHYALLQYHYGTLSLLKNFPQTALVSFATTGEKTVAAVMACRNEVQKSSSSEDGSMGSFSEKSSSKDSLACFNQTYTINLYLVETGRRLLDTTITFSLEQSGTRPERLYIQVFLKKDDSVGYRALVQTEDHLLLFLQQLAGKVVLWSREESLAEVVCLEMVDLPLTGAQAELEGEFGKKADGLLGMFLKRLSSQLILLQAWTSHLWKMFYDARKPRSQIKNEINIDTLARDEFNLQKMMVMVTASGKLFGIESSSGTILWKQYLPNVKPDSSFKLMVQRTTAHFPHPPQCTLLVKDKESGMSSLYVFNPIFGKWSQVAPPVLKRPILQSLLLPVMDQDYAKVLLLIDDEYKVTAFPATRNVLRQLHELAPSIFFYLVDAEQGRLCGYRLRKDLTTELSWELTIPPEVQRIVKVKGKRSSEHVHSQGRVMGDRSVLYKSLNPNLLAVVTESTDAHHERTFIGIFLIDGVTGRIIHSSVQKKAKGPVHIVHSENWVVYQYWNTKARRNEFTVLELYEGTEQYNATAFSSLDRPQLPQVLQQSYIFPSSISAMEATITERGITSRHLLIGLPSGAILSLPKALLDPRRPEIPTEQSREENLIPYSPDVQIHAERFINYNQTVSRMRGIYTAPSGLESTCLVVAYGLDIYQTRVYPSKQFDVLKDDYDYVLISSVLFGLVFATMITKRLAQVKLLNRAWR
UniProt Q9NPA0: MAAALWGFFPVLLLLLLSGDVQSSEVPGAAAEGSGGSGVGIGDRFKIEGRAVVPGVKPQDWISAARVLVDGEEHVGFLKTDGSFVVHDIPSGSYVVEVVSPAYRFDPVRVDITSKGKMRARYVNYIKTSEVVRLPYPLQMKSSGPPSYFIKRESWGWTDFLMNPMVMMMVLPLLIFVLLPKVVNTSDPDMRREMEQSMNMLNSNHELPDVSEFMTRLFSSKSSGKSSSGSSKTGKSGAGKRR
UniProt Q14152, whole entry, looked up: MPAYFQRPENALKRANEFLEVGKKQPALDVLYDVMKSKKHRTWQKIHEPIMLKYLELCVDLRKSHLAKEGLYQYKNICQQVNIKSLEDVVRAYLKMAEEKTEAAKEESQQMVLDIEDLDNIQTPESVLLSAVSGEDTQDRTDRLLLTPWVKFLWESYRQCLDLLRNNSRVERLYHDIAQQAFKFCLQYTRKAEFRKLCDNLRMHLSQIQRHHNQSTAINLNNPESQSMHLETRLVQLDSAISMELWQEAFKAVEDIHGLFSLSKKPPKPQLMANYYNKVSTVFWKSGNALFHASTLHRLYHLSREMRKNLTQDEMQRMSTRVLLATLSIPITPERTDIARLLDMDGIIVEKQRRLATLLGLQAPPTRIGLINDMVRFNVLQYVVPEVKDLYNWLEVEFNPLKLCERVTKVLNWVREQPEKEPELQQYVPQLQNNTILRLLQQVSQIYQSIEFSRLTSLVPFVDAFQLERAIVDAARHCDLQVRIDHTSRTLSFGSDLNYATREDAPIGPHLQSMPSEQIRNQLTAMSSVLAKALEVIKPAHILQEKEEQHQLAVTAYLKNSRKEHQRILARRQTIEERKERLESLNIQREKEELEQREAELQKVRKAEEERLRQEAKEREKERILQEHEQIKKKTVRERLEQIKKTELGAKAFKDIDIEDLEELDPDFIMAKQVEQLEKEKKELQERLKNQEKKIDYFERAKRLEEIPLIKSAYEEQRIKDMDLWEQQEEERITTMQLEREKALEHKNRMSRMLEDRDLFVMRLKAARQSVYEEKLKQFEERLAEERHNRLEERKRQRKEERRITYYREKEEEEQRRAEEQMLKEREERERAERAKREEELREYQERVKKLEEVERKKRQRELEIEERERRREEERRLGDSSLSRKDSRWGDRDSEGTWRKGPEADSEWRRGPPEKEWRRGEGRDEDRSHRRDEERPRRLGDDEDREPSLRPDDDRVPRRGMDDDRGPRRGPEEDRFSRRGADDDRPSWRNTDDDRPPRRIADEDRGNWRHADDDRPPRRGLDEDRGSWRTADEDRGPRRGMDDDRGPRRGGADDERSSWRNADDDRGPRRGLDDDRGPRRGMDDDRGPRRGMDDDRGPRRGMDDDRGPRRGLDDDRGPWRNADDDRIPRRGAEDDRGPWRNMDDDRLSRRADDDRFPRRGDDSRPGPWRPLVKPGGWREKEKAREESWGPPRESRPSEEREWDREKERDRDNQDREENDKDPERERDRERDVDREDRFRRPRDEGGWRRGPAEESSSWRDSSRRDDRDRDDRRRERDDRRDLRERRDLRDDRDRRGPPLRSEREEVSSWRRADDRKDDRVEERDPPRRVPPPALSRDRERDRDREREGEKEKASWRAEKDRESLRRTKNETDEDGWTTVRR
UniProt Q6ZTU2, whole entry, looked up: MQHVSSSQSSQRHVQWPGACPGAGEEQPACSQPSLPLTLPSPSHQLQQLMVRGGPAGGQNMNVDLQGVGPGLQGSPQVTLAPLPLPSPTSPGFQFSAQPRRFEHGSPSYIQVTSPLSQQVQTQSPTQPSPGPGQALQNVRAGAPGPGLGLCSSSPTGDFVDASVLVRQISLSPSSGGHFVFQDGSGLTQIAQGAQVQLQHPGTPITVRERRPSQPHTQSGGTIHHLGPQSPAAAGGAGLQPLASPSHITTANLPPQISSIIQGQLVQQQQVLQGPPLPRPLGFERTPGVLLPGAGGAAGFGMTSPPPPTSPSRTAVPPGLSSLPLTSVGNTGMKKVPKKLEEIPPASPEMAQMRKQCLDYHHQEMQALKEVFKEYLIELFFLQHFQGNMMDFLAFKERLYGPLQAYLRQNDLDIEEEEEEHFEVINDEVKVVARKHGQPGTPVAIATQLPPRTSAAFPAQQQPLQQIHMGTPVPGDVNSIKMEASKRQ

This is one part of the list.

Holding throughout (assay): log2 fold change, soluble protein after heating vs DMSO (PISA); higher = thermal stabilisation; K562 lysate, 10 uM; active = over 0.2 and 3.5 SD of the protein, either way, in both replicates (recomputed)
Compound in one assay: CS(=O)(=O)CCNCc1ccc(-c2ccc3ncnc(Nc4ccc(OCc5cccc(F)c5)c(Cl)c4)c3c2)o1 [lapatinib]
An outline of the steps: (§1)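 Quantification was by TMTpro 16plex LC-MS/MS with equalised channel sums, applied to the supernatant after 21,000xg for 90 min. Samples were crude K562 extract at 1 mg/mL protein in PBS pH 7.4 with 1 mM MgCl2, treated with 10 μM compound for 30 min, heated for 3 min across 48°C-58°C, pooled and brought to 0.5% NP-40 at 4°C. Values are log-two fold changes in thermal stability relative to solvent controls, from duplicates.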

Compound in another assay: CS(=O)(=O)N1CCN(Cc2cc3nc(-c4cccc5[nH]ncc45)nc(N4CCOCC4)c3s2)CC1 [pictilisib]
An outline of the steps: as §1

Compound in the next assay: C[C@@H](Oc1cc(-c2cnn(C3CCNCC3)c2)cnc1N)c1c(Cl)ccc(F)c1Cl [crizotinib]
The procedure, abridged: as §1

Compound in assay [1]: C[C@H](C1=CC=C(C=C1)C(=O)NC2=C3C=CNC3=NC=C2)N
The procedure, abridged:
as §1

Compound in another assay: C[C@H](Nc1ncnc2nc[nH]c12)c1cc2cccc(Cl)c2c(=O)n1-c1ccccc1 [duvelisib]
An outline of the steps:
as §1

Compound in another assay: Cc1cc(Nc2cc(CN3CCOCC3)c3nc(C)c(Cc4ccc(Cl)cc4F)n3n2)n[nH]1 [gandotinib]
An outline of the steps:
as §1

Compound in the next assay: Cc1cc(Nc2cc(N3CCN(C)CC3)nc(Sc3ccc(NC(=O)C4CC4)cc3)n2)n[nH]1 [tozasertib]
The procedure, abridged: as §1

Compound in a further assay: Cc1ccc(-n2nc(C(C)(C)C)cc2NC(=O)Nc2ccc(OCCN3CCOCC3)c3ccccc23)cc1 [doramapimod]
An outline of the steps: as §1

Compound in a further assay: Cc1ccc(NC(=O)c2ccc(CN3CC[C@H](N(C)C)C3)c(C(F)(F)F)c2)cc1Nc1nccc(-c2cncnc2)n1 [bafetinib]
An outline of the steps:
as §1

Compound in assay [2]: Cc1cccc(CC(=O)N2CCc3c2ccc(-c2cn(C)c4ncnc(N)c24)c3F)n1
The procedure, abridged: as §1

Compound in a further assay: Cc1cn(-c2cc(NC(=O)c3ccc(C)c(Nc4nccc(-c5cccnc5)n4)c3)cc(C(F)(F)F)c2)cn1 [nilotinib]
The procedure, abridged:
as §1

Compound in assay [3]: Cc1nc(Nc2n[nH]c3c2CN(C(=O)N[C@H](CN(C)C)c2ccccc2)C3(C)C)c2sccc2n1
An outline of the steps: as §1

Compound in another assay: Cc1nc(Nc2ncc(C(=O)Nc3c(C)cccc3Cl)s2)cc(N2CCN(CCO)CC2)n1 [dasatinib]
An outline of the steps: as §1

Compound in assay [4]: Cc1ncc(-c2ccnc(Nc3ccc(S(C)(=O)=O)cc3)n2)n1C(C)C
An outline of the steps:
as §1

Compound in assay [5]: Cn1cc(-c2ccc3c(c2)CCN3C(=O)Cc2cccc(C(F)(F)F)c2)c2c(N)ncnc21
The procedure, abridged: as §1

Compound in a further assay: Cn1cc(CNCC2CCN(c3ncc(C(=O)NO)cn3)CC2)c2ccccc21 [quisinostat]
The procedure, abridged: as §1

Compound in a further assay: Cn1cncc1[C@@](N)(c1ccc(Cl)cc1)c1ccc2c(c1)c(-c1cccc(Cl)c1)cc(=O)n2C [tipifarnib]
An outline of the steps: as §1

Compound in assay [6]: NC(=O)Nc1cc(-c2cccc(F)c2)sc1C(=O)N[C@H]1CCCNC1
An outline of the steps:
as §1

Compound in assay [7]: NC(=O)c1cnc(N[C@@H]2CCCC[C@@H]2N)nc1Nc1cccc(-n2nccn2)c1
The procedure, abridged:
as §1

Compound in assay [8]: NC1(c2ccc(-c3nc4ccn5c(=O)[nH]nc5c4cc3-c3ccccc3)cc2)CCC1
An outline of the steps: as §1

Consider EMC1 (UniProt Q8N766), for which the log2 fold change was inactive: -0.028 in the assay with lapatinib; inactive: -0.025 with pictilisib; inactive: -0.007 with crizotinib; inactive: -0.135 in [1]; inactive: 0.016 with duvelisib; inactive: 0.005 with gandotinib. In addition, the log2 fold change with tozasertib is inactive: 0.028; in the assay with doramapimod it was inactive: -0.003; with bafetinib it was inactive: -0.025; in [2] it was inactive: 0.043; with nilotinib it was inactive: 0.014; in assay [3], inactive: -0.013. Also, the log2 fold change is inactive: -0.008 in the assay with dasatinib; inactive: -0.005 in [4]; inactive: 0.009 in assay [5]; inactive: -0.012 with quisinostat; inactive: -0.013 with tipifarnib; inactive: 0.046 in assay [6]. For the same target, the values for the log2 fold change in assay [7] and in assay [8] were inactive: 0.007 and inactive: -0.01, respectively.

EMC7 (UniProt Q9NPA0): the log2 fold change was inactive: -0.03 with lapatinib; inactive: 0.024 in the assay with pictilisib; inactive: 0.012 in the assay with crizotinib; active: -0.353 in assay [1]; inactive: -0.041 in the assay with duvelisib; inactive: 0.077 with gandotinib. In addition, the log2 fold change is inactive: 0.02 with tozasertib; inactive: 0.011 with doramapimod; inactive: -0.031 with bafetinib; inactive: 0.174 in assay [2]; inactive: 0.047 with nilotinib; inactive: -0.015 in [3]. For the same target, the log2 fold change was inactive: -0.022 with dasatinib; inactive: 0.027 in assay [4]; inactive: 0.001 in [5]; inactive: -0.006 in the assay with quisinostat; inactive: -0.014 in the assay with tipifarnib; inactive: -0.003 in assay [6]. The results for the log2 fold change in assay [7] and in assay [8] were inactive: 0.014 and inactive: -0.073, respectively.

In the case of EIF3A (UniProt Q14152), the log2 fold change is inactive: -0.009 with lapatinib; inactive: 0.023 in the assay with pictilisib; inactive: -0.037 with crizotinib; inactive: -0.009 in assay [1]; inactive: -0.031 with duvelisib; inactive: -0.102 in the assay with gandotinib. In addition, the log2 fold change with tozasertib was inactive: 0.009; in the assay with doramapimod, inactive: 0.033; in the assay with bafetinib it was inactive: -0.043; in assay [2] it was inactive: 0.027; in the assay with nilotinib, inactive: -0.006; in assay [3], inactive: 0.008. The log2 fold change with dasatinib is inactive: -0.031; in assay [4] it was inactive: -0.014; in [5], inactive: -0.01; in the assay with quisinostat, inactive: 0.037; with tipifarnib, inactive: 0.008; in assay [6] it was inactive: 0.039. Further, the log2 fold change in assay [7] was inactive: -0.005; in assay [8], inactive: -0.035.

On to EP400P1 isoform 6 (UniProt Q6ZTU2), for which the log2 fold change in the assay with lapatinib is inactive: 0.04; with pictilisib, inactive: -0.002; with crizotinib, inactive: 0.012; in [1] it was inactive: -0.151; with duvelisib it was inactive: -0.045; in the assay with gandotinib, inactive: 0. The log2 fold change with tozasertib is inactive: 0.023; with doramapimod, inactive: -0.035; with bafetinib it was inactive: 0.116; in assay [2] it was inactive: 0.035; with nilotinib it was inactive: 0.15; in assay [3], inactive: -0.003. Further, the log2 fold change with dasatinib was inactive: 0.002; in [4], inactive: -0.026; in assay [5] it was inactive: 0.052; with quisinostat, inactive: -0.03; with tipifarnib it was inactive: 0.021; in assay [6], inactive: -0.03. For the same target, the log2 fold change is inactive: 0.13 in assay [7] and inactive: -0.126 in assay [8].
